Reference: patent US20060257938A1, “Method of screening for drugs that block ligand binding to a lipid binding protein” (priority 2005, published 2006)

Test: Baseline fluorescence ratio Ro of probe in absence of analyte
Conditions: baseline fluorescence ratio of probe

| Molecule | Ro | Ro (no fatty acid) |
| --- | --- | --- |
| 18I 31V 55V 73V 72A (protein, listed as Rattus norvegicus, PEPTIDE (1)...(131) wild-type rat intestinal fatty acid binding protein) AFDGTWKVDRNENYEKFIEKMGINVVKRKLVAHDNLKLTITQEGNKFTVKESSNVRNIDVVFELGVDFAYSAVDGTELTGTWTMEGNKLVGKFKRVDNGKELIAVREISGNELIQTYTYEGVEAKRIFKKE | 0.362 |  |
| 18I 31Y 73G 72A (protein, listed as Rattus norvegicus, PEPTIDE (1)...(131) wild-type rat intestinal fatty acid binding protein) AFDGTWKVDRNENYEKFIEKMGINVVKRKLYAHDNLKLTITQEGNKFTVKESSNFRNIDVVFELGVDFAYSAGDGTELTGTWTMEGNKLVGKFKRVDNGKELIAVREISGNELIQTYTYEGVEAKRIFKKE | 0.298 |  |
| 72T 73G 74I (protein, listed as Rattus norvegicus, PEPTIDE (1)...(131) wild-type rat intestinal fatty acid binding protein) AFDGTWKVDRNENYEKFMEKMGINVVKRKLGAHDNLKLTITQEGNKFTVKESSNFRNIDVVFELGVDFAYSTGIGTELTGTWTMEGNKLVGKFKRVDNGKELIAVREISGNELIQTYTYEGVEAKRIFKKE | 0.311 |  |
| 14R 18L 73L 117D 72A (protein, listed as Rattus norvegicus, PEPTIDE (1)...(131) wild-type rat intestinal fatty acid binding protein) AFDGTWKVDRNENREKFLEKMGINVVKRKLGAHDNLKLTITQEGNKFTVKESSNFRNIDVVFELGVDFAYSALDGTELTGTWTMEGNKLVGKFKRVDNGKELIAVREISGNELIQTDTYEGVEAKRIFKKE | 0.647 | 0.647 |
| 38H 62W 106V 117A 72A (protein, listed as Rattus norvegicus, PEPTIDE (1)...(131) wild-type rat intestinal fatty acid binding protein) AFDGTWKVDRNENYEKFMEKMGINVVKRKLGAHDNLKHTITQEGNKFTVKESSNFRNIDVVWELGVDFAYSAADGTELTGTWTMEGNKLVGKFKRVDNGKELIAVVEISGNELIQTATYEGVEAKRIFKKE | 0.284 |  |
| 14L 18L 31S 73W 117V 72A (protein, listed as Rattus norvegicus, PEPTIDE (1)...(131) wild-type rat intestinal fatty acid binding protein) AFDGTWKVDRNENLEKFLEKMGINVVKRKLSAHDNLKLTITQEGNKFTVKESSNFRNIDVVFELGVDFAYSAWDGTELTGTWTMEGNKLVGKFKRVDNGKELIAVREISGNELIQTVTYEGVEAKRIFKKE | 0.264 | 0.264 |
| 14M 18L 31W 73I 117G 72A (protein, listed as Rattus norvegicus, PEPTIDE (1)...(131) wild-type rat intestinal fatty acid binding protein) AFDGTWKVDRNENMEKFLEKMGINVVKRKLWAHDNLKLTITQEGNKFTVKESSNFRNIDVVFELGVDFAYSAIDGTELTGTWTMEGNKLVGKFKRVDNGKELIAVREISGNELIQTGTYEGVEAKRIFKKE | 0.580 | 0.580 |
| 38Y 117A 72A (protein, listed as Rattus norvegicus, PEPTIDE (1)...(131) wild-type rat intestinal fatty acid binding protein) AFDGTWKVDRNENYEKFMEKMGINVVKRKLGAHDNLKYTITQEGNKFTVKESSNFRNIDVVFELGVDFAYSAADGTELTGTWTMEGNKLVGKFKRVDNGKELIAVREISGNELIQTATYEGVEAKRIFKKE | 0.350 | 0.350 |
| 72A 73P 74E (protein, listed as Rattus norvegicus, PEPTIDE (1)...(131) wild-type rat intestinal fatty acid binding protein) AFDGTWKVDRNENYEKFMEKMGINVVKRKLGAHDNLKLTITQEGNKFTVKESSNFRNIDVVFELGVDFAYSAPEGTELTGTWTMEGNKLVGKFKRVDNGKELIAVREISGNELIQTYTYEGVEAKRIFKKE | 0.199 |  |
| 18I 31F 72A (protein, listed as Rattus norvegicus, PEPTIDE (1)...(131) wild-type rat intestinal fatty acid binding protein) AFDGTWKVDRNENYEKFIEKMGINVVKRKLFAHDNLKLTITQEGNKFTVKESSNFRNIDVVFELGVDFAYSAADGTELTGTWTMEGNKLVGKFKRVDNGKELIAVREISGNELIQTYTYEGVEAKRIFKKE | 0.314 |  |
| 72E 73V 74A (protein, listed as Rattus norvegicus, PEPTIDE (1)...(131) wild-type rat intestinal fatty acid binding protein) AFDGTWKVDRNENYEKFMEKMGINVVKRKLGAHDNLKLTITQEGNKFTVKESSNFRNIDVVFELGVDFAYSEVAGTELTGTWTMEGNKLVGKFKRVDNGKELIAVREISGNELIQTYTYEGVEAKRIFKKE | 0.296 | 0.296 |
| 72S 74A (protein, listed as Rattus norvegicus, PEPTIDE (1)...(131) wild-type rat intestinal fatty acid binding protein) AFDGTWKVDRNENYEKFMEKMGINVVKRKLGAHDNLKLTITQEGNKFTVKESSNFRNIDVVFELGVDFAYSSAAGTELTGTWTMEGNKLVGKFKRVDNGKELIAVREISGNELIQTYTYEGVEAKRIFKKE | 0.208 | 0.208 |
| 14R 18L 31S 73F 117E 72A (protein, listed as Rattus norvegicus, PEPTIDE (1)...(131) wild-type rat intestinal fatty acid binding protein) AFDGTWKVDRNENREKFLEKMGINVVKRKLSAHDNLKLTITQEGNKFTVKESSNFRNIDVVFELGVDFAYSAFDGTELTGTWTMEGNKLVGKFKRVDNGKELIAVREISGNELIQTETYEGVEAKRIFKKE | 0.524 |  |
| 72S 73V 74A (protein, listed as Rattus norvegicus, PEPTIDE (1)...(131) wild-type rat intestinal fatty acid binding protein) AFDGTWKVDRNENYEKFMEKMGINVVKRKLGAHDNLKLTITQEGNKFTVKESSNFRNIDVVFELGVDFAYSSVAGTELTGTWTMEGNKLVGKFKRVDNGKELIAVREISGNELIQTYTYEGVEAKRIFKKE | 0.340 | 0.340 |
| 72A 74N (protein, listed as Rattus norvegicus, PEPTIDE (1)...(131) wild-type rat intestinal fatty acid binding protein) AFDGTWKVDRNENYEKFMEKMGINVVKRKLGAHDNLKLTITQEGNKFTVKESSNFRNIDVVFELGVDFAYSAANGTELTGTWTMEGNKLVGKFKRVDNGKELIAVREISGNELIQTYTYEGVEAKRIFKKE | 0.162 | 0.162 |
| 18I 31M 55M 72A (protein, listed as Rattus norvegicus, PEPTIDE (1)...(131) wild-type rat intestinal fatty acid binding protein) AFDGTWKVDRNENYEKFIEKMGINVVKRKLMAHDNLKLTITQEGNKFTVKESSNMRNIDVVFELGVDFAYSAADGTELTGTWTMEGNKLVGKFKRVDNGKELIAVREISGNELIQTYTYEGVEAKRIFKKE | 0.352 |  |
| 18I 31Y 72A (protein, listed as Rattus norvegicus, PEPTIDE (1)...(131) wild-type rat intestinal fatty acid binding protein) AFDGTWKVDRNENYEKFIEKMGINVVKRKLYAHDNLKLTITQEGNKFTVKESSNFRNIDVVFELGVDFAYSAADGTELTGTWTMEGNKLVGKFKRVDNGKELIAVREISGNELIQTYTYEGVEAKRIFKKE | 0.345 |  |
| 18V 31A 55I 72A (protein, listed as Rattus norvegicus, PEPTIDE (1)...(131) wild-type rat intestinal fatty acid binding protein) AFDGTWKVDRNENYEKFVEKMGINVVKRKLAAHDNLKLTITQEGNKFTVKESSNIRNIDVVFELGVDFAYSAADGTELTGTWTMEGNKLVGKFKRVDNGKELIAVREISGNELIQTYTYEGVEAKRIFKKE | 0.345 |  |
| 72T 74S (protein, listed as Rattus norvegicus, PEPTIDE (1)...(131) wild-type rat intestinal fatty acid binding protein) AFDGTWKVDRNENYEKFMEKMGINVVKRKLGAHDNLKLTITQEGNKFTVKESSNFRNIDVVFELGVDFAYSTASGTELTGTWTMEGNKLVGKFKRVDNGKELIAVREISGNELIQTYTYEGVEAKRIFKKE | 0.251 |  |
| 38Y, 72A (protein, listed as Rattus norvegicus, PEPTIDE (1)...(131) wild-type rat intestinal fatty acid binding protein) AFDGTWKVDRNENYEKFMEKMGINVVKRKLGAHDNLKYTITQEGNKFTVKESSNFRNIDVVFELGVDFAYSAADGTELTGTWTMEGNKLVGKFKRVDNGKELIAVREISGNELIQTYTYEGVEAKRIFKKE | 0.213 |  |
| 74Q 72A 73F (protein, listed as Rattus norvegicus, PEPTIDE (1)...(131) wild-type rat intestinal fatty acid binding protein) AFDGTWKVDRNENYEKFMEKMGINVVKRKLGAHDNLKLTITQEGNKFTVKESSNFRNIDVVFELGVDFAYSAFQGTELTGTWTMEGNKLVGKFKRVDNGKELIAVREISGNELIQTYTYEGVEAKRIFKKE | 0.251 | 0.251 |
| 72T 73I 74A (protein, listed as Rattus norvegicus, PEPTIDE (1)...(131) wild-type rat intestinal fatty acid binding protein) AFDGTWKVDRNENYEKFMEKMGINVVKRKLGAHDNLKLTITQEGNKFTVKESSNFRNIDVVFELGVDFAYSTIAGTELTGTWTMEGNKLVGKFKRVDNGKELIAVREISGNELIQTYTYEGVEAKRIFKKE | 0.293 |  |
